Assay results from article PMC11624273.
These are yes or no findings as the source states them, for the method shown. Binding seen in cells or lysates may run through a third protein. Some entries that bind do so weakly or less than the wild type. For part of these data: Sequences can lack the tags named with a protein.

Sequences of proteins named here, by UniProt entry; tags and fusion partners are left off. A change or cut given only in a name is not applied to a line headed by its entry.
UniProt Q9GZV5: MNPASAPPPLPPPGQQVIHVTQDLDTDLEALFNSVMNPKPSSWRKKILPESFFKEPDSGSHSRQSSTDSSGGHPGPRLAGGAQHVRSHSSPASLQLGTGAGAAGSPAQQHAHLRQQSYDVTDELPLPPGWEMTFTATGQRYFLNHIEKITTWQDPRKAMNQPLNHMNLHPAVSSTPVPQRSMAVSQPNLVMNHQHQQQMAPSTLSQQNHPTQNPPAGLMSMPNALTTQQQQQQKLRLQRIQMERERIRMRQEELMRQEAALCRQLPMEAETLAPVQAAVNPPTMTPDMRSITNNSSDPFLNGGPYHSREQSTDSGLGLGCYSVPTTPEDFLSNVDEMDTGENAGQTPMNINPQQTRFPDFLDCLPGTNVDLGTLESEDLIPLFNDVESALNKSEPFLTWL
UniProt P25490: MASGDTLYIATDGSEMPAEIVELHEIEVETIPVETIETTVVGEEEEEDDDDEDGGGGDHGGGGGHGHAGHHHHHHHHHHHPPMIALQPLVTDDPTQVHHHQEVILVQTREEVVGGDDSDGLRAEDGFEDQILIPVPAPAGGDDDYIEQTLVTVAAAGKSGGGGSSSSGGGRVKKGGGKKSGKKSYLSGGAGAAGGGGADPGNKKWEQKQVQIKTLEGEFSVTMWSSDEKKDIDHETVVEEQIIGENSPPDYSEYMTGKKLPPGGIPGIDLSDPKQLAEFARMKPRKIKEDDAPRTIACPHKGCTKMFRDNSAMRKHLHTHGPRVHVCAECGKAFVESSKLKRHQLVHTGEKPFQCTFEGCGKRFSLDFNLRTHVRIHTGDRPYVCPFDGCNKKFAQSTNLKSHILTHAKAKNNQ

Key:
Test in all cases: co-IP; lysates of transfected 293T cells incubated with anti-FLAG M2 magnetic beads or anti-V5 agarose beads at 4 °C for 4 h or overnight; washed three times with NP-40 lysis buffer (50 mM Tris-HCl pH 8.0, 150 mM NaCl, 1% NP-40, 0.5 mM DTT) and once with PBS; Western blot with anti-HA, anti-V5 or …
[1] = target: FLAG-MPP7 (pCDNA3-Flag-Mpp7) (human) (UniProt Q5T2T1)
V5-TAZ (human) = V5-TAZ (human) (UniProt Q9GZV5)
[2] = target: V5-tagged MPP7 WT (pCDNA3-V5-Mpp7, human cDNA) (human) (UniProt Q5T2T1)

For “TAZ WWm (W152A, P155A) (from UniProt Q9GZV5 1-400)”, the binding [1] was “no binding”.

“HA-YY1 (human cDNA) (from UniProt P25490 1-414)” was tested, and the binding (V5-TAZ (human)) was “binds”.

“HA-tagged AMOT WT (HA-Amot p130, human cDNA) (from UniProt Q4VCS5-1 1-1084)” was tested, and the binding [2] was “binds”.
